In patent publication US7854918B2 (Nihon Medi-Physics Co., Ltd., priority 2004, dated 2010):

Test: general procedure: Boc solid-phase peptide synthesis; MBHA resin
Details: whole synthesis, 220 nm, area percentage

formyl-Nle-Leu-Phe-Nle-Tyr-Lys(NH2)-ε(-Ser-D-Arg-Asp-Cys-Asp-Asp) (LLFLYKSRDCDD; N-formyl, Nle, D-residue, branched Lys linkage; chemically synthesized metal chelating peptide)
final HPLC purity: 93.2%
